According to patent publication US20140113306A1, “DIAGNOSTIC AND SCREENING METHODS FOR INFLAMMATION” (Rutgers, The State University of New Jersey, priority 2012, published 2014):
At least one structure is not confirmed: it was looked up by name or label, or the drawing left a doubt.

Test system: human leukocytes
Assay: Ex vivo whole blood pretreated with inhibitors, then endotoxin; leukocyte Western blotting and ATP analyses
Assay type: cell-based
Protocol: (A) Blood samples were treated with endotoxin (LPS; […]) for the indicated time. (B-D) Blood samples were untreated (control), treated for 2 hours with DMSO (vehicle), or the specified inhibitors prior to the addition of endotoxin (10 ng/ml). The inhibitors tested included: LY294002 (LY), Rapamycin (RAPA), YC-1, acriflavine (ACF), metformin (Met) and SRT1720 (SRT). Leukocytes were isolated at the indicated time post-endotoxin treatment and lysed. Lysates were subjected to Western blotting analyses, and where shown, ATP analyses. Details are provided in the supplement. (E) Proposed model for endotoxin-induced metabolic derangement in human leukocytes.
FIG. 7. provides the Toll-like receptor 4 signaling pathway in human leukocytes and the antagonistic effect of insulin. (A) Blood samples were treated with endotoxin (10 ng/ml) for the indicated time. (B) Blood samples were untreated (UN), or treated with DMSO (vehicle; 0.05%; 2 hours), LY294002 (LY; 10 μM; 30 min), rapamycin (RAPA; 100 nM, 2 ‘hours), YC-1 (30 μM; 30 min), or acriflavine (ACF; 5 μM; 2 hours). The samples shown in lanes 3-8 were subsequently treated with endotoxin (10 ng/ml) for 2 hours. (C) Blood samples were untreated (UN; lane 1), treated with endotoxin (10 ng/ml; lane 2) for 2 hours, or with insulin (1 unit/ml) for 2 hours (lane 3) or 1 hour (lane 4). The samples shown in lanes 5-9 were treated with endotoxin (10 ng/ml) plus insulin at the indicated concentration (1-0.05 unit/ml) for 2 hours, (D) Blood samples were treated with insulin (0.1 unit/ml) plus endotoxin (10ng/ml) for the indicated time, or with endotoxin alone (Endo, 10 ng/ml) for 2 hours. Leukocytes were isolated, lysed, and analyzed as described in FIG. 5. (E) Model describing the pattern of signaling indicators detected in leukocytes treated with endotoxin as compared to insulin.
To examine the signaling events linking endotoxin induced responses ex vivo with the altered metabolic/bioenergetic profile, the inventors examined the effect of pharmacological inhibitors implicated in the regulation of HIF-1α expression in other model systems. […] Furthermore, they indicate that distinct PI-3K effectors regulate HIF-1α stabilization and AMPKα degradation.
To examine the effect of metformin on human leukocytes bioenergetics, whole blood samples were pretreated with metformin ex vivo prior to the addition of endotoxin.
Endotoxin (lipopolysaccharide from Escherichia coli 0111B4, Sigma, 10 ng/ml). Insulin (Humalog Mix 50/50; Lilly) was used at the indicated concentrations (0.05-1 unit/ml), Polymyxin (Invivogen, 50 μg/ml), CLI-095 (Invivogen; 3 μM), LY294002 (Cayman Chemical; 10 μM), Rapamycin (Tocris Bioscience; 100 nM), YC-1 (Sigma; 30 μM), Acriflavine (ACF; Sigma; 5 μM)
Human Subjects were enrolled in the study following the Institutional Review Board of Rutgers Robert Wood Johnson Medical School approval. Written informed consent was obtained from all participates prior to inclusion in the study. Blood was drawn into EDTA-containing tubes. To isolate leukocytes, lysis buffer (bicarbonate-buffered ammonium chloride solution, 0.826% NH4Cl, 0.1% KHCO3, 0.0037% Na4EDTA in H2O) was added at a ratio of 20:1 (lysis buffer/blood). Once the erythrocytes lysed, the samples were centrifuged for […] at 400×g. The leukocyte pellet was washed once with phosphate-buffered saline. […] Lysates containing equal protein amounts were analyzed by immunoblotting. […]

[1] = whole blood treated 2 hours with inhibitor prior to endotoxin 10 ng/ml

CO[C@H]1C[C@@H]2CC[C@@H](C)[C@@](O)(O2)C(=O)C(=O)N2CCCC[C@H]2C(=O)O[C@H]([C@H](C)C[C@@H]2CC[C@@H](O)[C@H](OC)C2)CC(=O)[C@H](C)/C=C(\C)[C@@H](O)[C@@H](OC)C(=O)[C@H](C)C[C@H](C)/C=C/C=C/C=C/1C [rapamycin]
autophagy in endotoxin-treated leukocytes (FIG. 7B: LY 10 μM 30 min, RAPA 100 nM 2 hours, YC-1 30 μM 30 min, ACF 5 μM 2 hours, then endotoxin 10 ng/ml 2 hours): blocked
HIF-1α expression in endotoxin-treated leukocytes (FIG. 7B: LY 10 μM 30 min, RAPA 100 nM 2 hours, then endotoxin 10 ng/ml 2 hours): blocked
endotoxin-induced AMPKα degradation (change in AMPKα expression) [1]: did not prevent
endotoxin-induced autophagy (LC3-I/LC3-II) [1]: inhibited
endotoxin-induced decline in ATP levels [1]: inhibited
